Among the data in the supplement of paper PMC7024190 are log values, retold here.

Structures can show the parent of a compound that is named as a salt. The list shows a part of the results. This data set is noisy: repeats of one test often differ as much as different tests do.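 The cells were human embryonic kidney cells carrying a Renilla luciferase gene, driven by the HSV-TK promoter, on a plasmid put in briefly by transfection. This is the first-round screen of about ten thousand compounds, looking for ones that raise reporter output.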

The assay deals with HEK 293FT. Kind of assay: log relative Renilla luciferase luminescence (reporter expression vs reference, reference not stated) (log (base not stated)); higher = higher recombinant reporter expression. Conditions: 10 µM; time after transfection 48 h.
For the molecule `CCCCN1CCCC1C(=O)Nc1c(C)cc(C)cc1C` (stereo not given) [Bumecaine], the log is -0.118.

As to `CNCCC(Oc1ccc(C(F)(F)F)cc1)c1ccccc1` (stereo not given) [Fluoxetine], the log is 0.128.

`Nc1ncnc2c1ncn2CC(O)CO` (stereo not given) [9-Dihydroxypropyladenine]: the log was -0.157.

As for `Cn1c(=O)c2[nH]c([N+](=O)[O-])nc2n(C)c1=O` [8-Nitrotheophylline], the log is -0.185.

Turning to `CC(C)=CCC[C@](C)(O)C1CC=C(C)CC1` (stereo not given in full) [Bisabolol], the log is -0.0627.

For `O=C(N/N=C/c1ccc(O)c(O)c1)c1ccncc1` [Protozide], the log was 0.0148.

As for `O=C(O)[C@H](CC(=O)N1C[C@H]2CCCC[C@H]2C1)Cc1ccccc1` [Mitiglinide], the log worked out at 0.029.

For `COc1ccc2c(=O)c(-c3ccc(OC)c(OC)c3)coc2c1` [Cabreuvin], the log worked out at 0.148.

As to `C[C@@H](O)[C@H]1C(=O)N2C(C(=O)O)=C(S[C@@H]3CN[C@H](CNS(N)(=O)=O)C3)[C@H](C)[C@H]12` [Doripenem], the log was -0.157.

`CC(=O)OCC1=C(C(=O)O)N2C(=O)[C@@H](NC(=O)Cc3cccs3)[C@H]2SC1` [Cefalotin]: the log was -0.00589.

In the case of `OCc1ccc(O[C@@H]2O[C@H](CO)[C@@H](O)[C@H](O)[C@H]2O)cc1` [Gastrodin], the log stood at 0.193.

For the molecule `COc1ccccc1OC(=O)c1cc(-c2ccccc2)nc2ccccc12` [Guaiacol cinchophenate], the log is -0.0071.

`O=C(O)c1cccc(C(=O)O)n1` [Dipicolinic acid]: the log was 0.106.

Take `O=C1c2c(O)ccc(O)c2C(=O)c2c(NCCNCCO)ccc(NCCNCCO)c21` [Mitoxantrone Hydrochloride]: the log was -1.08.

Consider `COc1cc(C)c(C(=O)Oc2cc(C)c(C(=O)O)c(O)c2)c(O)c1` [Evernic acid], for which the log is 0.151.

Turning to `CC(=O)OCC(=O)[C@@]1(O)CC[C@H]2[C@@H]3CCC4=CC(=O)C=C[C@]4(C)[C@H]3[C@@H](O)C[C@@]21C` [Prednisolone acetate], the log was -0.193.

`O=C(Nc1ccc(Cl)c(Cl)c1)c1cc(Cl)ccc1NS(=O)(=O)c1cccc2nsnc12` [Triclazan]: the log is 0.00781.

On to `CC1(C)C=Cc2c(ccc3c2OC[C@@H](c2ccc(O)cc2O)C3)O1` [Glabridin], for which the log is -0.00831.

Turning to `COc1cccc(CCc2ccccc2OCC(CN(C)C)OC(=O)CCC(=O)O)c1` (stereo not given) [Sarpogrelate Hydrochloride], the log is -0.156.

As for `O=C(O)CCCC[C@@H]1SC[C@@H]2NC(=O)N[C@@H]21` [D-Biotin], the log was -0.401.

Turning to `COc1ccc(-c2nc3cc(C4=NNC(=O)CC4C)ccc3[nH]2)cc1` (stereo not given) [Pimobendan], the log is -0.0912.

In the case of `CC1=C(O)c2ccccc2C(=O)C1=O` [Phthiocol], the log is -0.395.

`O=C(/C=C/C=C/c1ccc2c(c1)OCO2)N1CCCCC1` [Piperine]: the log came out at 0.0937.

For the molecule `CC(=O)CC(c1ccccc1)c1c(O)c2ccccc2oc1=O` (stereo not given) [Warfarin], the log was found to be 0.0679.

`Nc1nc(=O)[nH]c2c1ncn2[C@@H]1O[C@H](CO)[C@@H](O)[C@H]1O` [Isoguanosine]: the log is 0.0659.

With `OC(C#CCN1CCCCC1)(c1ccccc1)c1ccccc1` [Diferidin], the log was -0.0169.

Regarding `CCOc1ccc(NC(=S)Nc2ccc(OCC)cc2)cc1` [Etocarlide], the log is -0.0552.

For `O=C(O)COc1ccccc1/C=N/NC(=O)c1ccncc1` [Aconiazide], the log was 0.205.

`O=C1C(=O)N(Cc2ccc(Cl)c(Cl)c2)c2ccccc21` [Apoptosis Activator II]: the log was -0.0682.

Take `CC(C)=CCc1c2c(c3occ(-c4ccc(O)cc4)c(=O)c3c1O)C=CC(C)(C)O2` [Osaiin]: the log was -0.0696.

Turning to `CNCCc1ccccn1` [Betahistine], the log is -0.0295.

On to `Nc1ncnc(Nc2ccccc2)n1` [Amanozine], for which the log was -1.22.

Take `CCCc1nc(C(C)(C)O)c(C(=O)O)n1Cc1ccc(-c2ccccc2-c2nnn[nH]2)cc1` [Olmesartan]: the log was -0.964.

Consider `C=C1C(=O)O[C@@H]2C[C@@]3(C)CCC[C@H](C)[C@@]34O[C@H]4[C@H]12` [5-Alpha-Epoxyalantolactone], for which the log was -0.136.

Consider `CCc1c2c(nc3ccc(OC(=O)N4CCC(N5CCCCC5)CC4)cc13)-c1cc3c(c(=O)n1C2)COC(=O)[C@]3(O)CC` [Irinotecan], for which the log was -0.342.

On to `Cn1c(=O)c2[nH]c(-c3ccc(O)cc3)nc2n(C)c1=O`, for which the log was -0.167.

As for `Cc1oc(=O)oc1CN1CCN(c2cc3c(cc2F)c(=O)c(C(=O)O)c2n3C(C)S2)CC1` (stereo not given) [Prulifloxacin], the log was 0.128.

On to `COc1ccc(-c2oc3c(CC=C(C)C)c(O[C@@H]4O[C@H](CO)[C@@H](O)[C@H](O)[C@H]4O)cc(O)c3c(=O)c2O[C@@H]2O[C@@H](C)[C@H](O)[C@@H](O)[C@H]2O)cc1` [Icariin], for which the log is -1.02.

As for `CC(C)(C)c1ccc(C(=O)CCCN2CCC(OC(c3ccccc3)c3ccccc3)CC2)cc1` [Ebastine], the log is -0.473.

In the case of `Cn1c(=O)c2c(ncn2CC(=O)O)n(C)c1=O` [Acefylline], the log is 0.0234.
